Experimental findings from PMC7764492 are described below.

Sequences of proteins named here, by UniProt entry; tags and fusion partners are left off. Residues count along the entry.
UniProt Q9UM47, residues 40-2321: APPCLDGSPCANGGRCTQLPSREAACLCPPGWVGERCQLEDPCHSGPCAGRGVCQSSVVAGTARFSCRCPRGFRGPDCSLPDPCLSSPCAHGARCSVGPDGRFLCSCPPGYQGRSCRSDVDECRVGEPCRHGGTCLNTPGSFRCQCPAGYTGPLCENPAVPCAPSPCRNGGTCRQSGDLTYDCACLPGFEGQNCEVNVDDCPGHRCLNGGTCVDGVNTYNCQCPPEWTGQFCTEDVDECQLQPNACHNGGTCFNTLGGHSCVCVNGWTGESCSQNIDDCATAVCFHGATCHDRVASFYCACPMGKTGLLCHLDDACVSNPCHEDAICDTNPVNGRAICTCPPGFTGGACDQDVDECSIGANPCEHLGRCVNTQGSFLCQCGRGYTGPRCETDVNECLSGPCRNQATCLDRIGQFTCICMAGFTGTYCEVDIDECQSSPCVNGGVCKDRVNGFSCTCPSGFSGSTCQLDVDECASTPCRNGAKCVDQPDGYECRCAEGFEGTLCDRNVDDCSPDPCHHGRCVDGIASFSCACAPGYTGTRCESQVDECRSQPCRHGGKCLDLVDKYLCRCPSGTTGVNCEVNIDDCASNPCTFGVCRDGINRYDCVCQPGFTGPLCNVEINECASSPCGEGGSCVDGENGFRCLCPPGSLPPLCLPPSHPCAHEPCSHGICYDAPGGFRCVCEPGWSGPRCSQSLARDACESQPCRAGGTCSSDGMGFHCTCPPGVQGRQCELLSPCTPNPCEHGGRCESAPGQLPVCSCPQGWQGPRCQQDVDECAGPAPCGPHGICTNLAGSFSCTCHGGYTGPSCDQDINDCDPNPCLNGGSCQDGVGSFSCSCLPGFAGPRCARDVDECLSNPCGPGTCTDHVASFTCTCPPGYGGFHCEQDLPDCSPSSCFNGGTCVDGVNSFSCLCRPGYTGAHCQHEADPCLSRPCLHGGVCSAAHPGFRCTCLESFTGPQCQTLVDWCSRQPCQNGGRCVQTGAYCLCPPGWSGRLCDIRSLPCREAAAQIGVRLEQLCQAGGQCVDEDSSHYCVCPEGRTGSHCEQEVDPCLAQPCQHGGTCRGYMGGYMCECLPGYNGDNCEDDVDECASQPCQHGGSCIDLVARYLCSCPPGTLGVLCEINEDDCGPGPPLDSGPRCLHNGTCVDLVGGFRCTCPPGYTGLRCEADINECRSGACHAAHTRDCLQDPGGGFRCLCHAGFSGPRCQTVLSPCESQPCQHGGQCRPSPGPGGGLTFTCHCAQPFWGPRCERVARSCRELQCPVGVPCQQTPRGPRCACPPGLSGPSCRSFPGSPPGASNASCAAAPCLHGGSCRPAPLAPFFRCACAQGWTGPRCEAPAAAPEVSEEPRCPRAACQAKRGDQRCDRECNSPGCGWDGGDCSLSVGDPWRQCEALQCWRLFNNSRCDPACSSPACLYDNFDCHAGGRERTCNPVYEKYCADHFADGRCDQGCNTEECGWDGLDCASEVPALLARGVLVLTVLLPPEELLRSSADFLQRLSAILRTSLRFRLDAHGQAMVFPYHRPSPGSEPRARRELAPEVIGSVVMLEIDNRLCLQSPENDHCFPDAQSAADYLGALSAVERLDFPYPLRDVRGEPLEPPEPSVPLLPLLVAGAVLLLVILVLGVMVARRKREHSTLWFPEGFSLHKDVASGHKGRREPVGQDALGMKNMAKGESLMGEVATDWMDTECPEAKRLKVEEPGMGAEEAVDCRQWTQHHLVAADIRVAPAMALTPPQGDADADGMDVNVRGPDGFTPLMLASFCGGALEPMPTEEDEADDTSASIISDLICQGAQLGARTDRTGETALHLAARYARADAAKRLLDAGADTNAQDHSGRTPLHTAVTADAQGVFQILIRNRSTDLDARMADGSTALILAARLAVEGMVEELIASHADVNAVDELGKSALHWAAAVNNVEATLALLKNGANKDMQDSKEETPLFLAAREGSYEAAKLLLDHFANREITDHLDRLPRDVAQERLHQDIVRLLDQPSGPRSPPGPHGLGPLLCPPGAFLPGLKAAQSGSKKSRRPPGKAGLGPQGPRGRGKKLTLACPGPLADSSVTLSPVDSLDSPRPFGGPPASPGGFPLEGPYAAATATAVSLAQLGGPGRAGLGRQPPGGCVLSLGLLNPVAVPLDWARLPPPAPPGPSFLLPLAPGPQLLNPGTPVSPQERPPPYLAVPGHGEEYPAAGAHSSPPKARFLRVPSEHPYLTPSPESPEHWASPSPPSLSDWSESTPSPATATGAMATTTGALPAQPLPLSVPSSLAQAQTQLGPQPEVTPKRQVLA

Assay [1] deals with T1, ZIP4 (gene name SLC39A4), a zinc transporter (human (endogenous in PE01 and PE04)) (UniProt Q6P5W5).
T1 sequence: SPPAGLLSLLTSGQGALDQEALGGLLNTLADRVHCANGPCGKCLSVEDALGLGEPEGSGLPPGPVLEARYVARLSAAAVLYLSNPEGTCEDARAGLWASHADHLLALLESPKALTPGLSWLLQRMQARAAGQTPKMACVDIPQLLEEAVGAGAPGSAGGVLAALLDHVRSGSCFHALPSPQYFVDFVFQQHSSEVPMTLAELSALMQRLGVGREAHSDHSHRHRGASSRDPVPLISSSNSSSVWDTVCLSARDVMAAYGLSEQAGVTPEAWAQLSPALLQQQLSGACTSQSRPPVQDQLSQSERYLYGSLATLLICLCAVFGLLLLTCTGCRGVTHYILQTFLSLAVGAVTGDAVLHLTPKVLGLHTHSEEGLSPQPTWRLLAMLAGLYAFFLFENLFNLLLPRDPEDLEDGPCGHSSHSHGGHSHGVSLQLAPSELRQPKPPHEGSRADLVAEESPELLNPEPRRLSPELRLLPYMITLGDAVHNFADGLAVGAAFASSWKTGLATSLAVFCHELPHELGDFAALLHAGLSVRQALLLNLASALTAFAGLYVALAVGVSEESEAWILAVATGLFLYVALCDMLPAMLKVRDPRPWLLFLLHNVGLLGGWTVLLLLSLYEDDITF
Put plainly: co-IP; Pierce Cross-link IP Kit; NOTCH3 antibody or ZIP4 antibody (20625-1-AP) or control IgG bound to beads; endogenous proteins in PE01 and PE04 cell lysates; detected by immunoblotting. In general terms: A western blot detects proteins with antibodies after separation by electrophoresis.

Assay [2] has as its target NOTCH3 (human (endogenous in PE01 and PE04)) (UniProt Q9UM47). The assay is described as above.

No constants are given. Whether binding was seen depends on the method and setting. In cells and extracts the contact can be indirect. Some results given as binding are weak or reduced against the parent protein; the word gives no strength.

As to “NOTCH3 (from UniProt Q9UM47 40-2321) (receptor)”, the binding entry in assay [1] was “binds”.

B1: ZIP4 (gene name SLC39A4), a zinc transporter (protein, UniProt Q6P5W5 23-647)
chain: T1 sequence
On to B1, for which, in assay [2], the binding entry is recorded as “binds”.
